Laboratory results taken from PMC11894219.
Results are given in words; binding and its absence hold for the method and conditions named. Binding seen in cells or lysates may run through a third protein. These calls come from enrichment with a bait or labelling near it, and not all partners need be listed. For some of these results: Where a sequence is shown, tags or fusion partners need not be part of it.

Sequences of proteins named here, by UniProt entry; tags and fusion partners are left off.
UniProt P54132: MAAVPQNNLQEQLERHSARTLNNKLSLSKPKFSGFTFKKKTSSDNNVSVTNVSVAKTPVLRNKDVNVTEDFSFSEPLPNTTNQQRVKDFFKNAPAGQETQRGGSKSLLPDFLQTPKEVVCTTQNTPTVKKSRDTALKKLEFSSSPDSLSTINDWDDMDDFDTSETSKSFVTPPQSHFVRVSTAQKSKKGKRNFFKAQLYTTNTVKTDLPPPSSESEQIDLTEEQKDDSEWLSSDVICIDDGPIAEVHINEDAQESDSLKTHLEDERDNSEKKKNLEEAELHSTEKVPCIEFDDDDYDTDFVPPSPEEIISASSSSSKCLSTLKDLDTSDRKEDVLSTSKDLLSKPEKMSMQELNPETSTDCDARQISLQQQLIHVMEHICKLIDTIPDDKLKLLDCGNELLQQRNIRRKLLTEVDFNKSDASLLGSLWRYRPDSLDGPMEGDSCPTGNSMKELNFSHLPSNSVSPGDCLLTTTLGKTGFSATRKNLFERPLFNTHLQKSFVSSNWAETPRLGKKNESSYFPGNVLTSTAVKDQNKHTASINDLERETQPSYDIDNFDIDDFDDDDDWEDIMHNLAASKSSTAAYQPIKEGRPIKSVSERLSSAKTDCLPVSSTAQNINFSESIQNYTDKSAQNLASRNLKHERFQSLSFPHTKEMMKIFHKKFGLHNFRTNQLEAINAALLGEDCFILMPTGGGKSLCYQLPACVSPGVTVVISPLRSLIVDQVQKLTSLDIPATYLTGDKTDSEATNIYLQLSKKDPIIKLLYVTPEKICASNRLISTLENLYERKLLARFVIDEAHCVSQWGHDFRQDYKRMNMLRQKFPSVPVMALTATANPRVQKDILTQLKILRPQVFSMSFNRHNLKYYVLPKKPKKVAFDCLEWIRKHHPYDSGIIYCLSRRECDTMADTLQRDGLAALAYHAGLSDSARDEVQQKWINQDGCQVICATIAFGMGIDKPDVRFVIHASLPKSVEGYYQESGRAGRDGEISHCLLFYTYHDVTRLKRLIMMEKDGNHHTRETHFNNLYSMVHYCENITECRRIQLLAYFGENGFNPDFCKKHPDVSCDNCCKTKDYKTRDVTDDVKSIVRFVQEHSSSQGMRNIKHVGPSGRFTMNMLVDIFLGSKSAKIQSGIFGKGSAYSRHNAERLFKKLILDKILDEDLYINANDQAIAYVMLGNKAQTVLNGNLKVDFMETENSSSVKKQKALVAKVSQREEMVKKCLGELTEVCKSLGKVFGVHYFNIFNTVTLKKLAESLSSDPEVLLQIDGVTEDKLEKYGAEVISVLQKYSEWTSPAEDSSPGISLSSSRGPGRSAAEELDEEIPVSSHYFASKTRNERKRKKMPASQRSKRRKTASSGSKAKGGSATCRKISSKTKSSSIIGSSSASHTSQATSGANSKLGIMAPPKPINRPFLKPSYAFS
UniProt Q8IY92: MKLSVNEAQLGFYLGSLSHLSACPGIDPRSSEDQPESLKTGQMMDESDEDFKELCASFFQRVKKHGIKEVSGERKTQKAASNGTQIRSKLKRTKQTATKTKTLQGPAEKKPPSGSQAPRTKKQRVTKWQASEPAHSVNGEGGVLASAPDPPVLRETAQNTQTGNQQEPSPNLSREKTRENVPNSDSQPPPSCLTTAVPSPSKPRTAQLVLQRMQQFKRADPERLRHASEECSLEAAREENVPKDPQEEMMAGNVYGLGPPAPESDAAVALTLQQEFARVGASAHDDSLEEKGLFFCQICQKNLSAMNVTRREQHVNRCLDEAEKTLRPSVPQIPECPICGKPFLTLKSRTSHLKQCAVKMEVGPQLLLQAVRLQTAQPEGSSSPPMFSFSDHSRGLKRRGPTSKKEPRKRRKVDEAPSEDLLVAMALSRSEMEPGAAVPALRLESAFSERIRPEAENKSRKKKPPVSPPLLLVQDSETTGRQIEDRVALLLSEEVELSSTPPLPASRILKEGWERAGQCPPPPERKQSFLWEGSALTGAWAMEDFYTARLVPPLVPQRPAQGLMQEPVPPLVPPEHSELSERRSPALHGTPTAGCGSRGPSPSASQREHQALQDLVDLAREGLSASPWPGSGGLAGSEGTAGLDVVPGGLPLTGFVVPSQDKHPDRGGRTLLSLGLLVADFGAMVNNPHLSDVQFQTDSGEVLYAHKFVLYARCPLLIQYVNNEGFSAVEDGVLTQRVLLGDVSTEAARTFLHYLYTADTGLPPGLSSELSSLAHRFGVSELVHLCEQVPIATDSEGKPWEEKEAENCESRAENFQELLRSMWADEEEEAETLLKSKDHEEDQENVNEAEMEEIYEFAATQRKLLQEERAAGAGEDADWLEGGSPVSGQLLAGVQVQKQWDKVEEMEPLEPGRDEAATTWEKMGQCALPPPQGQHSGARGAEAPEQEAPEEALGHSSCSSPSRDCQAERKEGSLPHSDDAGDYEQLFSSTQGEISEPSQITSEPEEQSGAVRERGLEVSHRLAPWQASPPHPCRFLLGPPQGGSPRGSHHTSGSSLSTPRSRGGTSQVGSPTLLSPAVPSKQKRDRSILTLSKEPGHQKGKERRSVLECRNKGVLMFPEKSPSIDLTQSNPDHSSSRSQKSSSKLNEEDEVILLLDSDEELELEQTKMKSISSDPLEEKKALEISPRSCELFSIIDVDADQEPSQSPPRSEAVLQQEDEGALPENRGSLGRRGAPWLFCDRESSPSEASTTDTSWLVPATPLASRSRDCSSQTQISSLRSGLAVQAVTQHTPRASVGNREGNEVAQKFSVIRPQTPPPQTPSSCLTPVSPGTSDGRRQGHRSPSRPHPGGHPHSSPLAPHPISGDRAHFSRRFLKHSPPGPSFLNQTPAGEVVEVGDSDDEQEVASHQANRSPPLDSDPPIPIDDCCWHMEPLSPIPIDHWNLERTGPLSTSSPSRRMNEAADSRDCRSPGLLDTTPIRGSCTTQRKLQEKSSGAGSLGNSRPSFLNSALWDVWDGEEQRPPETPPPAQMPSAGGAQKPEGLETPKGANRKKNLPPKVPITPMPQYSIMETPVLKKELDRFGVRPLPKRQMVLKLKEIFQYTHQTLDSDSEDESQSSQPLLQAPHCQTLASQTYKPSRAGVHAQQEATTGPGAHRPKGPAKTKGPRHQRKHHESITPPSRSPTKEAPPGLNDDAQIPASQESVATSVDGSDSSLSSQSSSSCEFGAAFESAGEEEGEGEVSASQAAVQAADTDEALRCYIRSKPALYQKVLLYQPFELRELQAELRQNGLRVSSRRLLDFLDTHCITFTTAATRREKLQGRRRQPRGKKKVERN
UniProt Q92878: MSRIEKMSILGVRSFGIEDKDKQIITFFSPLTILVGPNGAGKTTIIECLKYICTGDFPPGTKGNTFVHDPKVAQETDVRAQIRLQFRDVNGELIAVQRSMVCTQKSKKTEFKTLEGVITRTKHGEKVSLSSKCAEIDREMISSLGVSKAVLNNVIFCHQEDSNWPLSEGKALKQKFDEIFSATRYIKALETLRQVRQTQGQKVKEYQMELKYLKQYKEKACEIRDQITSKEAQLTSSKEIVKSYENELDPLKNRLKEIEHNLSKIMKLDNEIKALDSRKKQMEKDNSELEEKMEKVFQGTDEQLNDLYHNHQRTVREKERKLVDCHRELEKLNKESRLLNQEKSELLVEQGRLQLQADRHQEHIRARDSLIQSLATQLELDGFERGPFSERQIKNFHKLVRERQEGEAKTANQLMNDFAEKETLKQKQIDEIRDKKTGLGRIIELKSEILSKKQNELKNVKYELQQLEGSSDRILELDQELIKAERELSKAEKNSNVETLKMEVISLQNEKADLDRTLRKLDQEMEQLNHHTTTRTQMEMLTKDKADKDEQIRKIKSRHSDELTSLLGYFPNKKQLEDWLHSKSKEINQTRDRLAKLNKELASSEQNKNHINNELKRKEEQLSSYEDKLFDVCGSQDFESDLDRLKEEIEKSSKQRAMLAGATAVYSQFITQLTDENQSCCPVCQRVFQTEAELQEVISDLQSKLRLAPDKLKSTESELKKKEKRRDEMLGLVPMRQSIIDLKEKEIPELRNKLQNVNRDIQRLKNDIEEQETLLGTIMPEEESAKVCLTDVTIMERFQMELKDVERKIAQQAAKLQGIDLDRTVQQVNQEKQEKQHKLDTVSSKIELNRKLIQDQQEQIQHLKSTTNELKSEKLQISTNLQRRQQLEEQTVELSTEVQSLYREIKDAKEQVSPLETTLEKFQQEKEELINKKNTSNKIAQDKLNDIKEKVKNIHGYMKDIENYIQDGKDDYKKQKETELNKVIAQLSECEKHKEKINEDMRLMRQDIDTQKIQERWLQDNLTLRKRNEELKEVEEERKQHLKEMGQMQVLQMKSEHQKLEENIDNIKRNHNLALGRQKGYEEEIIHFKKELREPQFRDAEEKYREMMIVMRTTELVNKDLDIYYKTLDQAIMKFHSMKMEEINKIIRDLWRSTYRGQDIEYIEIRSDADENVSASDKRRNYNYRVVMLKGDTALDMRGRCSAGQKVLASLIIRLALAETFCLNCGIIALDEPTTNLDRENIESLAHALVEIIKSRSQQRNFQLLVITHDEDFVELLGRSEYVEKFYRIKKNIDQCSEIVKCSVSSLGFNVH

Key:
[1] = target: T1, FLAG-BirA*-RAD54L2 (human) (UniProt Q9Y4B4); assay: proximity labelling; BioID with BirA*-RAD54L2 in HEK293; doxycycline and 50 uM biotin for 24 h; streptavidin-sepharose, mass spectrometry; BFDR <=0.01
T1 sequence: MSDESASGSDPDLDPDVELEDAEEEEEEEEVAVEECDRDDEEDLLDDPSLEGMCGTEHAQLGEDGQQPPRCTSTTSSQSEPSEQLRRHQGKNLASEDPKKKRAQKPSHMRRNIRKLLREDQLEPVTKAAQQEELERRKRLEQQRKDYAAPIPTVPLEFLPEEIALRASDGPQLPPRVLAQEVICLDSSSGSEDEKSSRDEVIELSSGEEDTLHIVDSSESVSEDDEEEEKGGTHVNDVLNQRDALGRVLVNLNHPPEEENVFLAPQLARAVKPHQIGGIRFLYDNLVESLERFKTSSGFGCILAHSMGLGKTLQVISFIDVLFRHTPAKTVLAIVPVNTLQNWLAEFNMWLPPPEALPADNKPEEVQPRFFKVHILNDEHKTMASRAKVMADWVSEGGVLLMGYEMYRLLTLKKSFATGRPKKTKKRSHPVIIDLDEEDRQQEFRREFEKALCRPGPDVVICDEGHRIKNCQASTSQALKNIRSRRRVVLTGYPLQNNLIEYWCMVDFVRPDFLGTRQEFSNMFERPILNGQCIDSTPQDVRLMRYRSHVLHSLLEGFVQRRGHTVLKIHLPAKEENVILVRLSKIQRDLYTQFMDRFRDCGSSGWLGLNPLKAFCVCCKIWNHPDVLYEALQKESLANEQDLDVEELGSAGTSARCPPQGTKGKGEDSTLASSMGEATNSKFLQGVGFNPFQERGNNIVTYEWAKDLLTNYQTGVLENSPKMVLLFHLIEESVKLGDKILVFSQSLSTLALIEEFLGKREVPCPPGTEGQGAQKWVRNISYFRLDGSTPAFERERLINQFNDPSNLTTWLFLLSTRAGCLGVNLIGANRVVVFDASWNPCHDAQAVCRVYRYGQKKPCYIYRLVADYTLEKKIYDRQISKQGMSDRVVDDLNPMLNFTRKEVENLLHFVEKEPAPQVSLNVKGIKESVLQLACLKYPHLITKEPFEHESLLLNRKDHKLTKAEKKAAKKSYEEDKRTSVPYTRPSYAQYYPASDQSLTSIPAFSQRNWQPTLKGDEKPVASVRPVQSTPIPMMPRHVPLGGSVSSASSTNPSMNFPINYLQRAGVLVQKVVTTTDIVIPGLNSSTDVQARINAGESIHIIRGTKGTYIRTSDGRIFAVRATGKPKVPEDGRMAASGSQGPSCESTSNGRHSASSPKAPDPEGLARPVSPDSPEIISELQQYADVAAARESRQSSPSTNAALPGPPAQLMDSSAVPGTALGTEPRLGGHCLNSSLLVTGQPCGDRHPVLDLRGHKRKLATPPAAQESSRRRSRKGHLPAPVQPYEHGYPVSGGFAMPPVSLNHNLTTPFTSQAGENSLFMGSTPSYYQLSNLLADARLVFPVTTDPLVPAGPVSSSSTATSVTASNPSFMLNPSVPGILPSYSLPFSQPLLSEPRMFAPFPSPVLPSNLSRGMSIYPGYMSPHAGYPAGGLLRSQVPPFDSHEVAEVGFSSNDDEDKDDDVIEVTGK

[2] = target: BLM fused to a biotin ligase (at least one of the BLM fusions BirA*-BLM, mT-BLM, BLM-mT; which one is not told) (human) (UniProt P54132); assay: proximity labelling; the three BLM BioID screens combined (BirA*-BLM, mT-BLM, BLM-mT); prey found with at least one BLM fusion; mass spectrometry, BFDR <=0.01
FLAG-BirA*-BLM (human) = FLAG-BirA*-BLM (human) (UniProt P54132); assay: proximity labelling; BioID with N-terminal BirA* fusions of BLM, TOP3A, RMI1 or RMI2 in HEK293; doxycycline and 50 uM biotin for 24 h; RIPA lysis, streptavidin-sepharose, mass spectrometry; SAINTexpress BFDR <=0.01
[3] = target: FLAG-miniTurbo-BLM (human) (UniProt P54132); assay: proximity labelling; miniTurbo fusions of BLM in HEK293; doxycycline, 50 uM biotin for 30 min; RIPA lysis, streptavidin-sepharose, mass spectrometry; SAINTexpress BFDR <=0.01
[4] = target: FLAG-miniTurbo-BLM (human) (UniProt P54132); assay: proximity labelling; extracts of cells with or without doxycycline induction, streptavidin-agarose affinity purification of biotinylated proteins, immunoblot with anti-RAD54L2

## SLX4 (from UniProt Q8IY92 1-1834)
[1]
  binding: binds
[2]
  binding: binds

## RAD50 (from UniProt Q92878 1-1312)
[1]
  binding: binds
[2]
  binding: binds

## BLM (from UniProt P54132 1-1417)
[1]
  binding: binds

B1: RAD54L2 (protein, UniProt Q9Y4B4 1-1467)
chain: T1 sequence
FLAG-BirA*-BLM (human)
  binding: binds
[3]
  binding: binds
[4]
  binding: binds

B2: TOP3A (protein, UniProt Q13472 1-1001)
chain: MIFPVARYALRWLRRPEDRAFSRAAMEMALRGVRKVLCVAEKNDAAKGIADLLSNGRMRRREGLSKFNKIYEFDYHLYGQNVTMVMTSVSGHLLAHDFQMQFRKWQSCNPLVLFEAEIEKYCPENFVDIKKTLERETRQCQALVIWTDCDREGENIGFEIIHVCKAVKPNLQVLRARFSEITPHAVRTACENLTEPDQRVSDAVDVRQELDLRIGAAFTRFQTLRLQRIFPEVLAEQLISYGSCQFPTLGFVVERFKAIQAFVPEIFHRIKVTHDHKDGIVEFNWKRHRLFNHTACLVLYQLCVEDPMATVVEVRSKPKSKWRPQALDTVELEKLASRKLRINAKETMRIAEKLYTQGYISYPRTETNIFPRDLNLTVLVEQQTPDPRWGAFAQSILERGGPTPRNGNKSDQAHPPIHPTKYTNNLQGDEQRLYEFIVRHFLACCSQDAQGQETTVEIDIAQERFVAHGLMILARNYLDVYPYDHWSDKILPVYEQGSHFQPSTVEMVDGETSPPKLLTEADLIALMEKHGIGTDATHAEHIETIKARMYVGLTPDKRFLPGHLGMGLVEGYDSMGYEMSKPDLRAELEADLKLICDGKKDKFVVLRQQVQKYKQVFIEAVAKAKKLDEALAQYFGNGTELAQQEDIYPAMPEPIRKCPQCNKDMVLKTKKNGGFYLSCMGFPECRSAVWLPDSVLEASRDSSVCPVCQPHPVYRLKLKFKRGSLPPTMPLEFVCCIGGCDDTLREILDLRFSGGPPRASQPSGRLQANQSLNRMDNSQHPQPADSRQTGSSKALAQTLPPPTAAGESNSVTCNCGQEAVLLTVRKEGPNRGRQFFKCNGGSCNFFLWADSPNPGAGGPPALAYRPLGASLGCPPGPGIHLGGFGNPGDGSGSGTSCLCSQPSVTRTVQKDGPNKGRQFHTCAKPREQQCGFFQWVDENTAPGTSGAPSWTGDRGRTLESEARSKRPRASSSDMGSTAKKPRKCSLCHQPGHTRPFCPQNR
[1]
  binding: binds

B3: RMI1 (protein, UniProt Q9H9A7 1-625)
chain: MNVTSIALRAETWLLAAWHVKVPPMWLEACINWIQEENNNVNLSQAQMNKQVFEQWLLTDLRDLEHPLLPDGILEIPKGELNGFYALQINSLVDVSQPAYSQIQKLRGKNTTNDLVTAEAQVTPKPWEAKPSRMLMLQLTDGIVQIQGMEYQPIPILHSDLPPGTKILIYGNISFRLGVLLLKPENVKVLGGEVDALLEEYAQEKVLARLIGEPDLVVSVIPNNSNENIPRVTDVLDPALGPSDEELLASLDENDELTANNDTSSERCFTTGSSSNTIPTRQSSFEPEFVISPRPKEEPSNLSIHVMDGELDDFSLEEALLLEETVQKEQMETKELQPLTFNRNADRSIERFSHNPNTTNNFSLTCKNGNNNWSEKNVSEQMTNEDKSFGCPSVRDQNRSIFSVHCNVPLAHDFTNKEKNLETDNKIKQTSSSDSHSLNNKILNREVVNYVQKRNSQISNENDCNLQSCSLRSSENSINLSIAMDLYSPPFVYLSVLMASKPKEVTTVKVKAFIVTLTGNLSSSGGIWSITAKVSDGTAYLDVDFVDEILTSLIGFSVPEMKQSKKDPLQYQKFLEGLQKCQRDLIDLCCLMTISFNPSLSKAMVLALQDVNMEHLENLKKRLNK
[1]
  binding: binds
